{"source": "patent US20080019949A1", "about": "“DIFFERENTIATION OF STEM CELLS FROM UMBILICAL CORD MATRIX INTO […] CELLS” (UNIVERSITY OF KANSAS, priority 2006, published 2008)", "test_system": "differentiated HUCM cells (hepatocyte-like cells)", "note": "For at least one compound, name, drawing or mass did not settle the structure.", "data": [{"smiles": "CCC1(c2ccccc2)C(=O)NC(=O)NC1=O", "note": "[PB, phenobarbital]", "values": [{"measurement": "Expression level of CAR (RT-PCR)", "value": "increased"}, {"measurement": "Expression level of PGC-1 (RT-PCR)", "value": "increased"}, {"measurement": "Expression level of PPAR-γ (RT-PCR)", "value": "stayed the same"}, {"measurement": "HNF4α expression (RT-PCR)", "value": "induced"}]}]}
